Binding data for one molecule are collected here from paper PMC10240976.

These are yes or no findings as the source states them, for the method shown. A result given as binding can be weak or reduced; the word gives no strength. Sequences can lack the tags named with a protein.

In the experiment the target is GABARAPL2 (W3S/M4T) of the LIR(Sp)-GABARAPL2 fusion protein (human). As to the kind of experiment: crystal structure; LIR fused to the N terminus of the mATG8 protein; sitting-drop vapor diffusion at 20°C; the LIR of one fusion molecule binds the mATG8 of another in the crystal; both purified.

With LQFEIDDEMEPLYNQAKQMRYGDY (domain or fragment) [SpHfl1 LIR (residues 386-409) of the LIR(Sp)-GABARAPL2 fusion protein], the binding entry is recorded as “binds”.
